Structures are written as SMILES. Some of the results follow. Shown are side measurements of this screen, not its main read-out; they come without a call. The list favours compounds with an active or inconclusive main result. Potencies come from curve fits of mixed quality, noted in brackets.

By AC50 is commonly meant the concentration at which the activity in the assay is half-maximal.

A short description of this test: qHTS Assay to Find Inhibitors of Chronic Active B-Cell Receptor Signaling. To be noted: ABC-DLBCL IkBa-CBG/CBR reporter, luminescence ratio (green luciferase fused to IkBa over red control in TMD8 lymphoma cells), 4 h. The essentials:
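Compounds up to 46 uM were incubated four hours with TMD8 cells whose green CBG68 luciferase is fused to IkappaBalpha; red CBR luminescence normalised the signal, and concentration-effect curves were fitted to fusion, red and ratio data.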

The mark [1] stands for this setting: measured here: CBR red luminescence, cell number.
Where [2] appears, read: measured here: IkBa-CBG green luminescence.

As to `CCOC(=O)c1ccoc1CSCc1ccc(C(=O)OC)o1`, the AC50 under setting [1] was 0.731 µM [rising, partial curve, poor fit].

On to `O=C1CCCN1c1ccc(Br)cc1`, for which the concentration at half-maximal activity (AC50) under setting [1] is 32.6 µM [rising, single point]. In the case of `CCOC(=O)CNS(=O)(=O)c1c(C)noc1C`, under setting [1], the AC50 is 2.06 µM [falling, partial curve, poor fit].

For the molecule `CCN(CC)C1CCN(C(=O)c2cc(COc3ccccc3SC)on2)C1` (stereo unspecified), the AC50 under setting [1] was 0.251 µM [rising, full curve, poor fit].

For `COc1ccc(O)c(CNc2ccccc2F)c1`, the AC50 under setting [2] is 35.5 µM [falling, partial curve, poor fit]. As for `CC(=O)Nc1cccc(-c2nnc(SCC(=O)n3c4c(c5ccccc53)CCCC4)n2C)c1`, the AC50 under setting [1] is 29.1 µM [rising, single point]. As for `Cc1cc(NC(=O)c2ccccc2)ccc1NC(=O)c1ccccc1Cl`, the concentration at half-maximal activity (AC50) is 11.2 µM [rising, partial curve] under setting [1] and 11.2 µM [falling, single point] under setting [2]. For the molecule `O=C(NC1CC2CCCC(C1)N2C(=S)NCCc1ccccc1)C1CC1` (stereo unspecified), the AC50 under setting [1] was 0.398 µM [rising, full curve, poor fit]. As to `CCc1ccc(NC(=O)Cn2c(=O)c3cccn3c3ccccc32)cc1`, the AC50 under setting [1] is 25.1 µM [rising, single point].

For the molecule `O=C(O)c1cc(-c2cccs2)nc2cc3c(cc12)OCCO3`, under setting [1], the AC50 was 20.6 µM [falling, single point]. For the molecule `Cc1nn(-c2ccccc2)c(C)c1C(=O)OCC(=O)Nc1ccc2c(c1)OCO2`, the concentration at half-maximal activity (AC50) under setting [1] is 25.1 µM [falling, single point]. In the case of `O=C(N/N=C\c1cccc(F)c1)c1ccc(-c2ccccc2)cc1`, the AC50 under setting [1] is 1.26 µM [rising, full curve, poor fit].

For the molecule `CCOc1ccc2nc(N(CCN(C)C)C(=O)/C=C/c3cccs3)sc2c1`, the AC50 under setting [1] was 17.8 µM [falling, partial curve, poor fit].

As to `Cc1c(C(=O)NCc2ccccc2Cl)oc2c1C(=O)CCC2`, under setting [1], the AC50 is 2.91 µM [falling, full curve, poor fit].

`Cc1[nH]c2ccccc2c1-c1nc(-c2ccc(Cl)cc2)nnc1-c1ccccc1`: the AC50 under setting [1] was 7.94 µM [falling, partial curve]. As to `CC1CCCN(Cc2nc3c(c(=O)n(C)c(=O)n3C)n2CCCc2ccccc2)C1` (stereo unspecified), the AC50 under setting [1] was 3.26 µM [falling, partial curve] and the AC50 under setting [2] is 4.11 µM [rising, partial curve, poor fit]. Consider `O=C(COc1ccccc1)N(CCc1ccccc1)c1nc(-c2ccc(F)cc2)cs1`, for which the AC50 under setting [1] was 10 µM [rising, partial curve, poor fit]. Turning to `CCOc1ccc(OCCC(=O)OCC(=O)N2CCN(S(=O)(=O)c3ccc(Cl)cc3)CC2)cc1`, under setting [1], the AC50 is 2.24 µM [falling, partial curve, poor fit]. For the molecule `CCOC(=O)c1ccc(NC(=O)CN2C(=O)CSC2=O)cc1`, the AC50 under setting [1] was 7.08 µM [rising, full curve, poor fit]. Take `O=C(C1CCN(Cc2nc(-c3ccc(Cl)cc3)no2)CC1)N1CCOCC1`: the AC50 under setting [1] was 1.12 µM [rising, full curve, poor fit]. On to `COc1ccc(-c2csc(-n3cccn3)n2)cc1`, for which the AC50 under setting [1] was 3.16 µM [rising, partial curve]. As for `CC(C)=NOc1cc(NC(=O)CCl)cc([N+](=O)[O-])c1`, the AC50 under setting [1] was 13 µM [falling, partial curve, poor fit]. As for `COc1ccc(NC(=O)n2nc(OC(=O)c3cccs3)cc2N)cc1`, the AC50 under setting [1] is 8.91 µM [falling, partial curve]. `O=S(=O)(CCSc1nc2ccccc2o1)c1nc2ccccc2s1`: the AC50 is 29.1 µM [falling, single point] under setting [1] and 18.4 µM [rising, partial curve, poor fit] under setting [2].

As to `CCN(CC)C(=O)[C@H]1CC(CC(=O)NCCC2=CCCCC2)C(=O)N2CCc3c([nH]c4ccccc34)[C@]12C` (stereo partly specified), the AC50 under setting [1] is 18.4 µM [falling, partial curve, poor fit]. As for `COc1cc(C(C)=O)ccc1Oc1ncnc2c1cnn2-c1ccc(F)cc1`, the half-maximal activity concentration (AC50) under setting [1] is 6.51 µM [rising, partial curve]. With `CCn1c(SCC(=O)Nc2cc(OC)ccc2OC)nnc1C1CCCCC1`, under setting [1], the AC50 is 14.6 µM [falling, partial curve, poor fit]. Still for that read-out and setting: with `O=C(NCCO)C1(c2ccccc2)CCCC1` the figure was 18.4 µM [rising, single point]. On to `CCOc1cc(NC(=O)Nc2ccccc2)c(OCC)cc1NC(=O)CC`, for which the half-maximal activity concentration (AC50) under setting [1] was 3.16 µM [rising, full curve, poor fit]. As to `CCCCNC(=O)C1(O)c2ccccc2NC(=O)N1c1ccc(Cl)cc1` (stereo unspecified), the AC50 under setting [1] was 12.6 µM [rising, partial curve].

Consider `Cc1ccc(-c2nc3c4ccccc4ccn3c2CN2CCCCC2)cc1`, for which the AC50 under setting [1] is 17.8 µM [rising, partial curve, poor fit]. `O=C(C[n+]1cc(Br)cc2ccccc21)c1ccc(F)cc1`: the AC50 under setting [1] was 10 µM [falling, partial curve, poor fit]. With `Cc1ccc(CN2C(=O)N/C(=C/c3ccc(-c4ccc(C(=O)O)cc4)o3)C2=O)cc1`, under setting [1], the AC50 was 11.2 µM [falling, partial curve]. As to `COc1ccc(/C=N/n2c(SC)nnc2-c2ccccc2)c(OC)c1OC`, under setting [2], the AC50 is 12.6 µM [falling, single point]. As to `Cn1cnc([N+](=O)[O-])c1Sc1ccc(Br)cc1`, the concentration at half-maximal activity (AC50) under setting [1] was 13 µM [falling, partial curve, poor fit]. For the molecule `COc1ccc(C(=O)C2CCN(C(=S)NCC3CCCO3)CC2)cc1` (stereo unspecified), the AC50 under setting [1] was 1.12 µM [rising, single point]. Take `COc1ccc(OC)c(CNC(=O)Cc2c(C(=O)O)[nH]c3ccc(Cl)cc23)c1`: the AC50 under setting [1] was 2.82 µM [falling, partial curve, poor fit]. On to `O=C(Nc1ccccc1)c1nc[nH]c1C(=O)NCCCNC(=O)c1[nH]cnc1C(=O)Nc1ccccc1`, for which the half-maximal activity concentration (AC50) under setting [1] is 1.64 µM [rising, partial curve, poor fit]. For `COc1ccc(NS(=O)(=O)c2cc(NC(=O)c3cccs3)ccc2N2CCCC2)cc1`, the AC50 under setting [1] was 5.17 µM [falling, full curve]. Consider `CCCCN(CC)CCNC(=S)Nc1ccc2nc(N3CCN(C)CC3)cc(C)c2c1`, for which, under setting [1], the AC50 is 22.4 µM [falling, single point].

Turning to `S=c1[nH]nc(-c2ccco2)n1/N=C/C(Cl)=C/c1ccccc1`, the AC50 under setting [1] is 10 µM [falling, partial curve, poor fit] and the AC50 under setting [2] is 35.5 µM [falling, partial curve, poor fit]. Consider `COc1ccc(C(=O)OCC(=O)NC(=O)NC2CCCC2)cc1OC`, for which the half-maximal activity concentration (AC50) under setting [1] is 16.4 µM [falling, single point].

Consider `O=C(NCCCN1CCOCC1)c1ccccc1NS(=O)(=O)c1ccc(F)cc1`, for which the AC50 under setting [1] is 0.794 µM [rising, full curve, poor fit].

Turning to `COc1ccc(/C=C2/SC(=O)N(NS(=O)(=O)c3ccccc3)C2=S)cc1OC`, the concentration at half-maximal activity (AC50) under setting [1] is 29.1 µM [rising, partial curve, poor fit]. Turning to `CN(C)S(=O)(=O)c1cccc(C(=O)NCC(C)(C)CNC(=O)c2cccc(S(=O)(=O)N(C)C)c2)c1`, the AC50 under setting [1] is 2.51 µM [falling, partial curve, poor fit]. On the same count and under the same terms, with `COc1ccc(-c2cc3cc4c(cc3cn2)OCO4)cc1` the figure was 29.1 µM [rising, single point]; with `Cc1ccc(SCC(=O)NNC(=O)CCS(=O)(=O)c2ccccc2)cc1`, 18.4 µM [rising, partial curve, poor fit]; with `CCCCN(C)CCC(=O)Nc1ccc2c(c1)CCC2`, 25.1 µM [falling, single point]. On the same count and under the same terms, the same measure for `Cc1ccc(S(=O)(=O)CC(=O)N(C)C)cc1`: 5.8 µM [rising, single point]; for `COC(=O)c1c(NC(=O)C(=O)N2CCCCC2)sc2c1CC(C)(C)OC2`: 11.2 µM [rising, partial curve].

With `COc1ccc2nc(NC(=O)c3ccc4ncsc4c3)sc2c1`, the AC50 under setting [1] is 2.59 µM [falling, partial curve]. Turning to `COC(=O)/C=C1\S/C(=N/NC(=O)c2ccccc2)NC1=O`, under setting [1], the AC50 is 0.366 µM [falling, full curve]. As for `COc1ccc(-c2nc(N3CCC(C)CC3)[nH]c(=O)c2C#N)cc1`, under setting [1], the AC50 was 0.00461 µM [rising, full curve, poor fit]. For the molecule `O=C(CSc1nn(-c2ccccc2)c(=S)s1)Nc1ncccn1`, under setting [1], the AC50 was 2.82 µM [rising, full curve]. On the same count and under the same terms, with `CSc1ccc(CN2CCN(C(=O)c3ccc([N+](=O)[O-])cc3)CC2)cc1` the figure was 1 µM [falling, full curve]; with `Clc1cccc(CN2CCCCCCC2)c1Cl`, 13 µM [rising, partial curve].

In the case of `COc1cccc(NC(=O)c2ccc3c(c2)N(CC(=O)N2CCOCC2)C(=O)C(C)(C)O3)c1`, the AC50 under setting [1] is 5.62 µM [rising, single point].

`CCC1=NN2C(=N)/C(=C\c3cccn3-c3cccc(Cl)c3)C(=O)N=C2S1`: the AC50 under setting [1] was 0.447 µM [rising, full curve]. On to `O=C(CCNS(=O)(=O)c1ccc(Br)cc1)NC1CCC(O)CC1` (stereo unspecified), for which, under setting [1], the AC50 was 29.1 µM [rising, single point].

Turning to `Cc1sc(C2C(C#N)=C(N)N(c3ccc(Cl)cc3)C3=C2C(=O)CCC3)cc1CN1CCOCC1` (stereo unspecified), under setting [1], the AC50 was 6.31 µM [rising, partial curve, poor fit].

As to `COc1ccc(C(C(=O)NC2CCCC2)N(Cc2ccccc2)C(=O)c2nsc(Cl)c2Cl)cc1` (stereo unspecified), the AC50 under setting [1] is 20.6 µM [falling, single point]. With `CC[C@]12c3[nH]c4ccccc4c3CCN1C(=O)C(CC(=O)NC/C=C(\C)CCC=C(C)C)C[C@@H]2C(=O)N1CCN(C(=O)c2ccco2)CC1` (stereo partly specified), under setting [1], the AC50 was 29.1 µM [falling, single point].

The values above are taken from PubChem BioAssay AID493014 (National Center for Advancing Translational Sciences (NCATS), 2011).
